# Source: PubChem BioAssay AID1671190 (National Center for Advancing Translational Sciences (NCATS), 2021)
# Sequences of proteins named here, by UniProt entry; tags and fusion partners are left off. A change or cut given only in a name is not applied to a line headed by its entry.
# UniProt P18054: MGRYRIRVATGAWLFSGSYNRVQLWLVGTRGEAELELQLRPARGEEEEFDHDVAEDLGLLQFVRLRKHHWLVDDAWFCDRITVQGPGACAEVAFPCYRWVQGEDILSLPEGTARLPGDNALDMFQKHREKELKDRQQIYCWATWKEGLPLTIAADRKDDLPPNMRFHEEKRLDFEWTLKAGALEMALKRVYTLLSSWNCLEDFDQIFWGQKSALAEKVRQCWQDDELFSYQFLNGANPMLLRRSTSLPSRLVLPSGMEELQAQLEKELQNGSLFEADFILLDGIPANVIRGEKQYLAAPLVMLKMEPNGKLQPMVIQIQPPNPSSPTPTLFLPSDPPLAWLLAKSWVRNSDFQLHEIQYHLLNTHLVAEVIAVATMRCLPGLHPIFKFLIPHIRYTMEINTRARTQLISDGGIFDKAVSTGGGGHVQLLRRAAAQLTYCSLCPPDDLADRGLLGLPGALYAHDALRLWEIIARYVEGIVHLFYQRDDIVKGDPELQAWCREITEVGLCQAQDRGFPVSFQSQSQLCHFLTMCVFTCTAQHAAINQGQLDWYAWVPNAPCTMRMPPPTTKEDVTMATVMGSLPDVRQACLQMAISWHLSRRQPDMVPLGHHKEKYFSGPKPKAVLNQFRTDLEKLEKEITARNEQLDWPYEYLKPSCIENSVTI
# The whole screen tested about 580,000 compounds, of which about 6,100 (1.1%) were called active. This list was built around the results that the source calls inconclusive (neither active nor inactive); the mix of calls is not that of the screen. The call rests on the fitted dose curve; in most records, active means well fitted inhibition curve with a large enough effect; inconclusive means small, poorly fitted or top-dose-only effect, or another doubt; inactive means no such curve, though single readings can be large or run the other way. A potency beside an inconclusive call is a rough fit, not a confirmed value.
# Biological target: Polyunsaturated fatty acid lipoxygenase ALOX12 (Homo sapiens) (UniProt P18054)
# Assay: Primary qHTS assay for inhibitors of human arachidonate 12S-lipoxygenase (ALOX12): Round 2
# Conditions: purified 12hLO, xylenol orange hydroperoxide absorbance; activity change, negative = inhibition: at 108 µM (top of the series) unless noted
# Summary of the method: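 Purified human 12hLO at 150 nM in 25 mM Hepes, 0.01% Triton X-100, pH 7.0, preincubated 15 min at room temperature with compound. Reaction started with 40 uM arachidonic acid, 30 min at room temperature. Hydroperoxide measured by Fe-xylenol orange, 573/405 nm absorbance ratio.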
# On the % scale 0 is the no-effect control and ±100 the full control effect; potency means the concentration at half of the fitted maximal effect.
SMILES,"activity change, negative = inhibition",Potency
CCc1ccccc1NC(=O)c1ccc2nc(N3CCOCC3)sc2c1,inactive: 27.4%,
CCCCS(=O)(=O)N1CCC2(CCC(=O)N(Cc3ccccc3)C2)CC1,inactive: 5.62%,
Cc1cccc(N2CCN(C(=O)CSc3ccsc3[N+](=O)[O-])CC2C)c1 (stereo unspecified),inactive: -9.05%,
CCOC(=O)c1ccc(NC(=O)CCCn2c(=O)c3cccn3c3ccccc32)cc1,inactive: -28.4%,
CN(C)Cc1nnc(C2CCN(C(=O)CCCn3cncn3)CC2)n1C,,"inconclusive: 10 µM [inhibitor, full curve]"
CCOC(=O)C1CCCN(Cc2c(C(=O)N3CCOCC3)nc3ccccn23)C1 (stereo unspecified),inactive: 0%,
COc1cccc(C(C(=O)NC2CCCC2)N(C(=O)CNC(=O)c2ccco2)c2cccnc2)c1 (stereo unspecified),inactive: -14.8%,
Cn1c(=O)n(C)c2cc(NC(=O)CN3C(=O)COc4ccc(C(C)(C)C)cc43)ccc21,,"inconclusive: 1.58 µM [inhibitor, full curve]"
N#CC(C(N)=S)=C1CCCCC1,,"inconclusive: 50.1 µM [inhibitor, partial curve, poor fit]"
CCC(C(=O)NCCn1ccn2nc(-c3ccc(OC)cc3)cc2c1=O)c1ccccc1 (stereo unspecified),inactive: 6.96%,
COc1cccc(CN2CC3(CN(S(C)(=O)=O)C3)c3c(n(C)c4cc(OC)ccc34)[C@H]2CO)c1,,"inconclusive: 89.1 µM [inhibitor, partial curve, poor fit]"
CC(C)N(Cc1nccn1C)C(=O)CCc1nnc(CCCc2ccccc2)o1,inactive: -0.176%,
Cc1ccc(CN[C@@H]2CO[C@H](CNC(=O)c3cccs3)[C@H]2O)cc1,,"inconclusive: 79.4 µM [inhibitor, partial curve]"
CC(C)CNC(=O)C1CCc2sc(C(=O)N3CCCCCC3)cc2C1 (stereo unspecified),inactive: 6.35%,
CC(C)N(C(=O)[C@H]1C[C@H](CC(=O)NCCc2ccccn2)C(=O)N2CCc3c([nH]c4cc(-c5ccco5)ccc34)[C@]12C)C(C)C,inactive: -4.51%,
CC(C)C(C)NC(=O)CCn1cnc2c1c(=O)n(C)c(=O)n2C (stereo unspecified),inactive: -12.8%,
O=C(Nc1ccc2ncccc2c1)c1cc(Cl)ccc1Cl,,"inconclusive: 35.5 µM [inhibitor, partial curve]"
CCOC(=O)C1=C(O)/C(=C\c2sccc2C)N=C1C,,"inconclusive: 112 µM [inhibitor, partial curve, poor fit]"
Cc1c(NC(=S)N/C(=N/S(=O)(=O)c2ccc(Cl)cc2)c2ccccc2)c(=O)n(-c2ccccc2)n1C,,"inconclusive: 141 µM [inhibitor, single point]"
CCOC(=O)[C@]12CCCC=C1N(Cc1ccc(Cl)cc1Cl)C(=O)[C@H](CC(=O)N1CCC(c3ccccc3)CC1)C2,,"inconclusive: 0.355 µM [inhibitor, full curve, poor fit]"
CCOc1ccccc1C1NC(=O)N(CC(=O)Nc2ccc(OC)c(Cl)c2)C2=C1C(=O)OC2 (stereo unspecified),,"inconclusive: 89.1 µM [inhibitor, single point]"
CNCC(=O)N1CCN(Cc2nc(C3CC3)no2)CC(O)C1 (stereo unspecified),,"inconclusive: 7.94 µM [inhibitor, full curve]"

SMILES,"activity change, negative = inhibition",Potency
CCc1cccc(NC(=O)c2ccc(Cn3c(=O)[nH]c4ccsc4c3=O)cc2)c1,,"inconclusive: 89.1 µM [inhibitor, single point]"
Cc1cccc(CN2CCN(C)C3(CCC(=O)N(CC(=O)O)CC3)C2)n1 (stereo unspecified),,"inconclusive: 10 µM [inhibitor, full curve, poor fit]"
COc1c(C2CC(=O)Nc3c2ncn3-c2cccc(Cl)c2)cc2c(c1OC)OCO2 (stereo unspecified),inactive: -17%,
COc1ccc2c(n1)Sc1nc3ccccc3nc1N2,,"inconclusive: 4.47 µM [inhibitor, full curve, poor fit]"
COc1ccc(OC)c(CN2CCN(c3cccc(C)c3C)CC2)c1,,"inconclusive: 1 µM [inhibitor, partial curve, poor fit]"
CC(NCc1ccc(F)cc1)C(=O)NC1CCCCC1 (stereo unspecified),,"inconclusive: 1.78 µM [inhibitor, full curve, poor fit]"
Cc1ccnc(SCc2cc(=O)c(OC(=O)c3ccc(Cl)c([N+](=O)[O-])c3)co2)n1,,"inconclusive: 17.8 µM [inhibitor, full curve]"
Cn1c(=O)c2c(-c3ccccc3)n(-c3cc(C(=O)O)ccc3O)cc2n(C)c1=O,,"inconclusive: 89.1 µM [inhibitor, single point]"
C/C(=N\NC(=S)NC(C)C)c1cccc([N+](=O)[O-])c1,,"inconclusive: 44.7 µM [inhibitor, partial curve, poor fit]"
O=C(OCc1ccccc1)N(CCCCN(CCCNCc1ccccc1)C(=O)OCc1ccccc1)CCCNCc1ccccc1,,"inconclusive: 44.7 µM [inhibitor, partial curve, poor fit]"
CN(Cc1ccsc1)C(=O)Cc1cccc(F)c1,,"inconclusive: 0.562 µM [inhibitor, single point]"
COCCn1c(=O)cnc2cnc(Nc3cccc(OC)c3)nc21,,"inconclusive: 70.8 µM [inhibitor, partial curve, poor fit]"
COc1cccc(-n2c(Cc3cc(=O)[nH]c(=O)[nH]3)nnc2SCC(=O)N2CCC(C)CC2)c1,,"inconclusive: 1.12 µM [inhibitor, partial curve, poor fit]"
CCN(C1CCCCC1)S(=O)(=O)c1cc(C)ccc1OC,,"inconclusive: 112 µM [inhibitor, single point]"
O=c1c2ccccc2[nH]c(=S)n1CCCN1CCOCC1,inactive: -4.68%,
Cc1ccc(-c2nc(S(=O)(=O)c3ccccc3)c(N3CCN(c4ccccc4)CC3)o2)cc1,inactive: -13.7%,
Cn1c(=O)c2c(nc(CN3CCCCC3)n2CC(N)=O)n(C)c1=O,,"inconclusive: 89.1 µM [inhibitor, single point]"
O=C(Nc1cccc(-c2nc3cc(Cl)ccc3o2)c1)c1ccccc1F,inactive: 13.6%,
CC(=O)c1ccc2[nH]c(C(=O)O)cc2c1,,"inconclusive: 28.2 µM [inhibitor, partial curve, poor fit]"
O=C(O)C/C(=C/c1ccc(Cl)s1)c1nc2ccccc2o1,,"inconclusive: 25.1 µM [inhibitor, partial curve, poor fit]"
CCn1c(C)c(C)c2cc(C(=O)NCCCN3CCCCCC3)ccc21,,"inconclusive: 50.1 µM [inhibitor, partial curve, poor fit]"
Cc1ccc(S(=O)(=O)N2CC(C(=O)O)Oc3ccccc32)cc1 (stereo unspecified),,"inconclusive: 112 µM [inhibitor, single point]"

# A few values from the results shown:
# Under activity change, negative = inhibition, `CCC(C(=O)NCCn1ccn2nc(-c3ccc(OC)cc3)cc2c1=O)c1ccccc1` (stereo unspecified) has inactive: 6.96%
# Under Potency, `Cn1c(=O)c2c(-c3ccccc3)n(-c3cc(C(=O)O)ccc3O)cc2n(C)c1=O` has inconclusive: 89.1 µM [inhibitor, single point]

# Later entries.

SMILES,"activity change, negative = inhibition",Potency
C#CCOCCOCCOCCNc1nc(N2CCN(C(=O)[C@H]([C@@H](C)O)n3cc(CCCCN)nn3)CC2)nc(N2CCN(C(=O)[C@H](CCCCN)n3cc(CCC(=O)O)nn3)CC2)n1,,"inconclusive: 35.5 µM [inhibitor, partial curve, poor fit]"
CCOC(=O)C1CCN(CC(O)COCc2ccc3c(c2)OCO3)CC1 (stereo unspecified),inactive: -2.48%,
COc1ccc(NC(=O)C2CCN(S(=O)(=O)c3ccc4c(c3)CCCC(=O)N4)CC2)cc1OC,inactive: 0%,
CCOC(=O)c1c(O)c(Cl)c(C)[nH]c1=O,,"inconclusive: 35.5 µM [inhibitor, partial curve]"
Cc1ccc(Cc2c(-c3ccc(Cl)cc3)nc3c(C)cc(Br)cn23)cc1,,"inconclusive: 39.8 µM [inhibitor, partial curve, poor fit]"
COc1ccc(-n2c(SCC(=O)Nc3ccc(C(N)=O)cc3)nc3ccccc3c2=O)cc1,inactive: 1.38%,
CC(C)C(NC(=O)/C(=C\c1ccco1)NC(=O)c1ccco1)C(=O)O (stereo unspecified),,"inconclusive: 35.5 µM [inhibitor, partial curve, poor fit]"
CC1(C)O[C@@H]2[C@H](O1)[C@@H](COS(=O)(=O)O)O[C@H]2n1c(=S)[nH]c2c(=O)[nH]c(N)nc21,,"inconclusive: 0.316 µM [inhibitor, full curve, poor fit]"
COc1cccc(C(NC(C)=O)c2nc(-c3ccc(C)c(C)c3)cs2)c1 (stereo unspecified),,"inconclusive: 79.4 µM [inhibitor, single point]"
CCc1nc2ccccc2n1CC(O)c1ccc(F)cc1 (stereo unspecified),inactive: -27.4%,
COc1ccc(-c2nc(SCC(=O)Nc3ccc4c(c3)OCCO4)c(-c3ccc(F)cc3)[nH]2)cc1,inactive: 0%,
CC(NCC(=O)Nc1cc(Cl)cc(Cl)c1)c1ccccc1 (stereo unspecified),,"inconclusive: 4.47 µM [inhibitor, full curve, poor fit]"
NC1CC(c2cc(N3CCC(OCc4ccccc4)CC3)ncn2)C1 (stereo unspecified),,"inconclusive: 6.31 µM [inhibitor, partial curve]"
CCN1C(=O)C2(CCN(S(=O)(=O)c3ccc(Cl)cc3C)CC2)c2ccccc21,,"inconclusive: 7.08 µM [inhibitor, full curve]"
COc1ccc(CCNC(=O)CSc2ccsc2[N+](=O)[O-])cc1OC,inactive: -13.8%,
CCc1ccc2nc(N(CCN(CC)CC)C(=O)c3cccs3)sc2c1,,"inconclusive: 28.2 µM [inhibitor, full curve, poor fit]"
CC(C)c1ccc(OCC(=O)NCCO)cc1,inactive: -16.5%,
Cc1csc(NC(=O)c2cc(C)nc3ccccc23)n1,inactive: -17.5%,
CCOCOCc1cc(OC(C)C)ccc1N1C(=O)C[C@@H](C(=O)OC)[C@H]1c1ccc(OC(C)C)c(OC)c1,inactive: -20.1%,
N[C@@H](CO)c1cn([C@@H](Cc2cc3ccccc3[nH]2)C(=O)N2CCNCC2)nn1,,"inconclusive: 112 µM [inhibitor, single point]"
O=[N+]([O-])c1c(NCCO)cc(N2CCCCCC2)c2nonc12,,"inconclusive: 56.2 µM [inhibitor, partial curve, poor fit]"
CC(C)CN1CCN(C(=O)COC(=O)c2ccc(S(C)(=O)=O)c([N+](=O)[O-])c2)CC1,inactive: -48.8%,

# Rewritten as tab-separated lines: part of the list above
SMILES	activity change, negative = inhibition	Potency
COc1ccc(-c2nc(SCC(=O)Nc3ccc4c(c3)OCCO4)c(-c3ccc(F)cc3)[nH]2)cc1	inactive: 0%	
CC(NCC(=O)Nc1cc(Cl)cc(Cl)c1)c1ccccc1 (stereo unspecified)		inconclusive: 4.47 µM [inhibitor, full curve, poor fit]
